Source: PubChem BioAssay AID540256 (National Center for Advancing Translational Sciences (NCATS), 2011)
Out of some 300,000 compounds screened, about 3,700 (1.2%) were called active. Inconclusive means that the source gave no clear call. Such entries were picked first, then a sample of the others. The call rests on the fitted dose curve; tested in HEK293 cells. Where the call is inconclusive, the potency comes from a doubtful curve fit.
On the % scale 0 is the no-effect control and ±100 the full control effect; potency means the concentration at half of the fitted maximal effect.

Assay: qHTS for Inhibitors of binding or entry into cells for Lassa Virus; further: nearly all actives have a fitted effect of over 50% in size
Conditions: Lassa virus pseudotype entry inhibition, cell reporter; activity change, negative = inhibition: at 37.9 µM (top of the series) unless noted
In the case of O=C(CCn1nc(-c2ccccc2)ccc1=O)N1CCCC1, the Potency is reported as inconclusive: 2.51 µM [activator, partial curve]. In the case of c1ccc(CCn2nnnc2C(c2cccs2)N2CCN(Cc3ccc4c(c3)OCO4)CC2)cc1 (configuration not stated), the Potency is reported as inconclusive: 20.6 µM [inhibitor, single point]. For O=C(CSc1nnc(COc2ccccc2)o1)N1CCN(c2ccccc2)CC1, the Potency was inconclusive: 11.6 µM [inhibitor, partial curve, poor fit]. For CCN(C(=O)C1CCC(CNS(=O)(=O)c2cccc3nsnc23)CC1)c1cccc(C)c1 (configuration not stated), the Potency was inconclusive: 35.5 µM [inhibitor, single point]. In the case of Cc1ccc(Oc2nc3c(c(=O)n(Cc4ccccc4)c(=O)n3C)n2C)cc1C, the Potency is reported as inconclusive: 35.5 µM [inhibitor, single point]. In the case of O=C(NCc1cccnc1)c1ccc(Cl)c(S(=O)(=O)N2CCCCCC2)c1, the Potency is reported as inconclusive: 8.91 µM [inhibitor, partial curve]. With CCCn1c(=N)c(C(=O)NCc2cccnc2)cc2c(=O)n3cccc(C)c3nc21 the Potency was inconclusive: 12.6 µM [inhibitor, single point]. In the case of CCN(CC)S(=O)(=O)c1cccc(C(=O)/C=C2/N(C)c3ccccc3C2(C)C)c1, the Potency is reported as inconclusive: 14.1 µM [inhibitor, partial curve, poor fit]. For Cc1ccc(CN2C(=O)c3ccccc3Sc3ccc(C(=O)NCc4ccco4)cc32)cc1, the Potency was inconclusive: 35.5 µM [inhibitor, single point]. For COC1=CC(=O)OC(c2ccc(OC)cc2)C1 (configuration not stated), the “activity change, negative = inhibition” value was inactive: -0.152% [at 46.1 µM]. With CNCc1ccccc1Sc1ccc(O)c(O)c1 the Potency was inconclusive: 35.5 µM [inhibitor, single point]. In the case of Cc1ccc(Oc2ccccc2/C=C2\SC(=O)N(C)C2=O)cc1, the Potency is reported as inconclusive: 32.6 µM [inhibitor, partial curve, poor fit]. In the case of CCCCOC(=O)Nc1ccc(C(C)C)cc1, the Potency is reported as inconclusive: 7.94 µM [inhibitor, partial curve, poor fit]. In the case of Cc1ccc(-n2c(C)cc(/C=N\NC(=O)CC(=O)NC(C)C)c2C)cc1, the Potency is reported as inconclusive: 11.2 µM [inhibitor, partial curve, poor fit]. For Cc1ccc(S(=O)(=O)N(CC(O)Cn2c3ccccc3c3ccccc32)c2cccc(C(=O)N(C)C)c2)cc1 (configuration not stated), the “activity change, negative = inhibition” value was inactive: -22.1% [at 46.1 µM]. With Cc1cccc(NC(=S)N(CCCN2CCOCC2)Cc2cn(C)c3ccccc23)c1 the Potency was inconclusive: 25.1 µM [inhibitor, single point]. In the case of O=C(Nc1nnc(CSCc2ccc(Cl)cc2)s1)c1cccc([N+](=O)[O-])c1, the Potency is reported as inconclusive: 0.708 µM [inhibitor, single point].
